This passage reports NP40-soluble protein abundance results from the supplement of paper PMC6411743.

By UniProt entry, the sequences of proteins in these tests, tags left out. Where a name states a change or a piece, a line headed by the entry shows the natural chain unless it says otherwise.
UniProt Q9Y3A5: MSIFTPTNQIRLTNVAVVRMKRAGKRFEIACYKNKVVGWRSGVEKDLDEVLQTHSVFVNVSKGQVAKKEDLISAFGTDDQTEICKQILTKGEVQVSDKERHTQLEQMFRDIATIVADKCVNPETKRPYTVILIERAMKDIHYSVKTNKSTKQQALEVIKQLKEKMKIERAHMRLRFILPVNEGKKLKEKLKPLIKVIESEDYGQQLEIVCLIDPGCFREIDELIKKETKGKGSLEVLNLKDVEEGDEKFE
UniProt Q9ULH1: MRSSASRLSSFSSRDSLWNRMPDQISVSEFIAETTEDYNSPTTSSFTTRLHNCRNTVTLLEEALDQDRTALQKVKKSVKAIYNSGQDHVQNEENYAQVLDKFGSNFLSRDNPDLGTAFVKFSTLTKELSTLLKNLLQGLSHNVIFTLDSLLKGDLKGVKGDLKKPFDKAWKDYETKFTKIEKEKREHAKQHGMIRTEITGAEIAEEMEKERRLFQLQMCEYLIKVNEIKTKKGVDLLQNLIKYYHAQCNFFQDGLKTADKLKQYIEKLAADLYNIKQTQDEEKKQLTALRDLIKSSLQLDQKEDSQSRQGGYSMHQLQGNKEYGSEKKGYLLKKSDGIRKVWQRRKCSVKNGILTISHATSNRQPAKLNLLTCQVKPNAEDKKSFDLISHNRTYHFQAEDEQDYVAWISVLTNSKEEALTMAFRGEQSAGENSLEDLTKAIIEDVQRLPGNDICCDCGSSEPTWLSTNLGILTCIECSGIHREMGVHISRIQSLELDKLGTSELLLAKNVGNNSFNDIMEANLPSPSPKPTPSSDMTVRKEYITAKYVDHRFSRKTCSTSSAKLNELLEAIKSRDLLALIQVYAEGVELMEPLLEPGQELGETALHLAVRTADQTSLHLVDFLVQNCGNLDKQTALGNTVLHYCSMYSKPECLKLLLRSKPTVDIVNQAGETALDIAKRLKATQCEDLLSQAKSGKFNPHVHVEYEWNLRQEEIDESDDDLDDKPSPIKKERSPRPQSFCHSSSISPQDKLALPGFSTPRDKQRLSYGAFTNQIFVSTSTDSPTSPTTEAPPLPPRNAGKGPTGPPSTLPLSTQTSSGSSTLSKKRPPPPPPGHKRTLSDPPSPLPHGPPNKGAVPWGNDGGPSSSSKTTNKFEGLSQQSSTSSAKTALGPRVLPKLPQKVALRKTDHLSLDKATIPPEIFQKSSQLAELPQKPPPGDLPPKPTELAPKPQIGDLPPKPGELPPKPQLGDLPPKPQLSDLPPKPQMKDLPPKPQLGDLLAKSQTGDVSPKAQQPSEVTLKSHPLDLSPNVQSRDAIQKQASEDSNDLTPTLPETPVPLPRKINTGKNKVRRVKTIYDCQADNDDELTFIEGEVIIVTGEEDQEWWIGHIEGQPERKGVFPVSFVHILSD
UniProt Q9NVV0: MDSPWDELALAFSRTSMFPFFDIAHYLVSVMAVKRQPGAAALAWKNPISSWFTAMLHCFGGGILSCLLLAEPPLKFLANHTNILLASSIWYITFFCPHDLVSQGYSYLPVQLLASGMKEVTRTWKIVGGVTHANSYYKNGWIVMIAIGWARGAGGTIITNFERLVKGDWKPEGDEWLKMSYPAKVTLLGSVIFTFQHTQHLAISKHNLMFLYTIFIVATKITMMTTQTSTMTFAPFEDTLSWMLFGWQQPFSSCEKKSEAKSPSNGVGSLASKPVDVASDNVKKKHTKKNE
UniProt O00512: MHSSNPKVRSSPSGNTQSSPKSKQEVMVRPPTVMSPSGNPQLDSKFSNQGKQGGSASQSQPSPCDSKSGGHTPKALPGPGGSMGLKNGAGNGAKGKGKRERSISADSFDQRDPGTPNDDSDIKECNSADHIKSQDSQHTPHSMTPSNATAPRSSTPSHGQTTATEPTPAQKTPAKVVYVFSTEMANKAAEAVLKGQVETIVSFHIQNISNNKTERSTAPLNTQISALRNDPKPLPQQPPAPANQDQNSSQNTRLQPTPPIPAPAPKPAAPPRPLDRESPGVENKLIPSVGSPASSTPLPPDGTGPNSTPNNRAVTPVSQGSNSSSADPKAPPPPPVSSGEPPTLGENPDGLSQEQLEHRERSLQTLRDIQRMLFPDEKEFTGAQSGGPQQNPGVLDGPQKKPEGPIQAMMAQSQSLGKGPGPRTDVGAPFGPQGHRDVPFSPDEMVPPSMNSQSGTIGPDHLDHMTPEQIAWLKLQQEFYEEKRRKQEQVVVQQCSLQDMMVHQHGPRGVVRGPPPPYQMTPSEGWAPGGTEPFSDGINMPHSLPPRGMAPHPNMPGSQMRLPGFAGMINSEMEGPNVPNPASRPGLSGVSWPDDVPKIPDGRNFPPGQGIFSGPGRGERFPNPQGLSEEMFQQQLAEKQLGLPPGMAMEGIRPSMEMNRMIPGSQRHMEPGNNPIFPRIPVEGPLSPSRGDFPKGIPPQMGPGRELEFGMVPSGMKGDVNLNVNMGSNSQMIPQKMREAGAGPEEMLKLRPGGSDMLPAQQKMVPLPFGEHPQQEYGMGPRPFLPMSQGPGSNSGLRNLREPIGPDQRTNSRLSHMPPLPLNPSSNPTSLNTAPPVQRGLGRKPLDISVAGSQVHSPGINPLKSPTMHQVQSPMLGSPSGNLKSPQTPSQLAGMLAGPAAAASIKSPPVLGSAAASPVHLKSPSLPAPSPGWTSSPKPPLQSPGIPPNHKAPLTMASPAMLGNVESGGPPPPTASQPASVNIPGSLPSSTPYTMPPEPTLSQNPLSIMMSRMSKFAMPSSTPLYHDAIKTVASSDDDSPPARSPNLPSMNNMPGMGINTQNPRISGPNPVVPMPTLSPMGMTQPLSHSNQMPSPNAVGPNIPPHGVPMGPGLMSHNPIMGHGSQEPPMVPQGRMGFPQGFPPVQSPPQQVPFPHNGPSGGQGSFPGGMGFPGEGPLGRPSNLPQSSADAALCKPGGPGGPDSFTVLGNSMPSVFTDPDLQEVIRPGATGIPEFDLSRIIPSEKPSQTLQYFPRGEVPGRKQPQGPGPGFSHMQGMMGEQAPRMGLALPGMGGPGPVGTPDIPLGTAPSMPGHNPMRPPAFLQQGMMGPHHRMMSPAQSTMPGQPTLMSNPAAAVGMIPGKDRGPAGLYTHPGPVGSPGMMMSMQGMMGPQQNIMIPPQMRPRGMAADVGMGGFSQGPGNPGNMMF
UniProt Q9H3P2, whole entry: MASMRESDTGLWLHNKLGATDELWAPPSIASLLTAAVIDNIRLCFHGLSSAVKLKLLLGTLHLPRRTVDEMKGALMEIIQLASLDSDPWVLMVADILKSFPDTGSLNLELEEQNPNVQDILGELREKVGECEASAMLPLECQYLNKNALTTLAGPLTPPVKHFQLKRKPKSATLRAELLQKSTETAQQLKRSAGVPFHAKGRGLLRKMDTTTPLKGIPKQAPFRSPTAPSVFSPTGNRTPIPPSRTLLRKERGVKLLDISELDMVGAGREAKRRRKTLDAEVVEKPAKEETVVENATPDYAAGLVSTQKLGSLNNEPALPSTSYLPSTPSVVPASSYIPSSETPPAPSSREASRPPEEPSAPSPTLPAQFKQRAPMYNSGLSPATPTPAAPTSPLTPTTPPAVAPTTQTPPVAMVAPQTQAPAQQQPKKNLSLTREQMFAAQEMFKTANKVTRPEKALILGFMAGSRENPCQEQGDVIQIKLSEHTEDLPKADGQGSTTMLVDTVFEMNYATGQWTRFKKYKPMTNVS
UniProt Q96I15: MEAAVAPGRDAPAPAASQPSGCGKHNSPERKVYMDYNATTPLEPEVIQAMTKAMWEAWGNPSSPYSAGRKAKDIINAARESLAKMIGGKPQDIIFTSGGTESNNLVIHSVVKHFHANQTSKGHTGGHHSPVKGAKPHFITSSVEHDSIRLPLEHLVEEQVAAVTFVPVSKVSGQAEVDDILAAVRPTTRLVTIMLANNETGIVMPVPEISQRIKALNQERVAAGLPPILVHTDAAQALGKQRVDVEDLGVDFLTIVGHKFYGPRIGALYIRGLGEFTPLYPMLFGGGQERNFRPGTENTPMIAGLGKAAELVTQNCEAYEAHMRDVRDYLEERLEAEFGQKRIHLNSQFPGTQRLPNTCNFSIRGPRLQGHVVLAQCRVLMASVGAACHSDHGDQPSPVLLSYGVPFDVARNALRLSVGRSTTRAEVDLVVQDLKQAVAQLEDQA
UniProt Q9NP79: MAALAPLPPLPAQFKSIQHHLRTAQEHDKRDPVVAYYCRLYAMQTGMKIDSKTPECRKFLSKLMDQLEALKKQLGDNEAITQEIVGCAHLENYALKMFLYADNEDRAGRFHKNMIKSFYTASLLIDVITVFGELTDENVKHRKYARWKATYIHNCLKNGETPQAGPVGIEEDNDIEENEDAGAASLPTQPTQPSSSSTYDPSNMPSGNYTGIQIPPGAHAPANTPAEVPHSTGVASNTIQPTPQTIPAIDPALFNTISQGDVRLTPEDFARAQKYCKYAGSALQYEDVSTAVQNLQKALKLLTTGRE
UniProt Q9UHQ1: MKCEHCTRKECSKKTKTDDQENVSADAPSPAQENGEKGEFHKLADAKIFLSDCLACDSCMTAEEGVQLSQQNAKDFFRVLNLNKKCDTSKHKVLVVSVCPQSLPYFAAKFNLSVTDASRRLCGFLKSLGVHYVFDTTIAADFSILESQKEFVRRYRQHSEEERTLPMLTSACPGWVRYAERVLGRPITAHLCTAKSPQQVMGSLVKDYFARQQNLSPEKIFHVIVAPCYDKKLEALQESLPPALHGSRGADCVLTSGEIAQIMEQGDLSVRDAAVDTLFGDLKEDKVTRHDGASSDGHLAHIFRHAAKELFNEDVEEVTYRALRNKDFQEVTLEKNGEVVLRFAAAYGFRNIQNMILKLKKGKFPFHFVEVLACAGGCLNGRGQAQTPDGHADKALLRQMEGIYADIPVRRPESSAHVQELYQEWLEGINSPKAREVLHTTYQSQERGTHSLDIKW
UniProt P15289: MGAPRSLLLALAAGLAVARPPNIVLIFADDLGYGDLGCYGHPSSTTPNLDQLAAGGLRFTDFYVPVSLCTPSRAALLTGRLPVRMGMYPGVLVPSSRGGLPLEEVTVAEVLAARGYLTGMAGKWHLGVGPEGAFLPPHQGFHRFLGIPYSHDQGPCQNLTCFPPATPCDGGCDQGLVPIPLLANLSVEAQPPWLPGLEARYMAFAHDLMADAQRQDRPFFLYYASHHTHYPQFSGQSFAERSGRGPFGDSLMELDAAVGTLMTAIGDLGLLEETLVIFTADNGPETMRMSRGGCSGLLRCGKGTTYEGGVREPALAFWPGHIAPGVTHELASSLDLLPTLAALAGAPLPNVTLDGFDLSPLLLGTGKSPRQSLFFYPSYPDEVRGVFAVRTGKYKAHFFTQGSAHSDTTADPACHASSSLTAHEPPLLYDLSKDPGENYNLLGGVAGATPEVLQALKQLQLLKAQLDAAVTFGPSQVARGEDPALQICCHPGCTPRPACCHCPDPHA
UniProt Q05193: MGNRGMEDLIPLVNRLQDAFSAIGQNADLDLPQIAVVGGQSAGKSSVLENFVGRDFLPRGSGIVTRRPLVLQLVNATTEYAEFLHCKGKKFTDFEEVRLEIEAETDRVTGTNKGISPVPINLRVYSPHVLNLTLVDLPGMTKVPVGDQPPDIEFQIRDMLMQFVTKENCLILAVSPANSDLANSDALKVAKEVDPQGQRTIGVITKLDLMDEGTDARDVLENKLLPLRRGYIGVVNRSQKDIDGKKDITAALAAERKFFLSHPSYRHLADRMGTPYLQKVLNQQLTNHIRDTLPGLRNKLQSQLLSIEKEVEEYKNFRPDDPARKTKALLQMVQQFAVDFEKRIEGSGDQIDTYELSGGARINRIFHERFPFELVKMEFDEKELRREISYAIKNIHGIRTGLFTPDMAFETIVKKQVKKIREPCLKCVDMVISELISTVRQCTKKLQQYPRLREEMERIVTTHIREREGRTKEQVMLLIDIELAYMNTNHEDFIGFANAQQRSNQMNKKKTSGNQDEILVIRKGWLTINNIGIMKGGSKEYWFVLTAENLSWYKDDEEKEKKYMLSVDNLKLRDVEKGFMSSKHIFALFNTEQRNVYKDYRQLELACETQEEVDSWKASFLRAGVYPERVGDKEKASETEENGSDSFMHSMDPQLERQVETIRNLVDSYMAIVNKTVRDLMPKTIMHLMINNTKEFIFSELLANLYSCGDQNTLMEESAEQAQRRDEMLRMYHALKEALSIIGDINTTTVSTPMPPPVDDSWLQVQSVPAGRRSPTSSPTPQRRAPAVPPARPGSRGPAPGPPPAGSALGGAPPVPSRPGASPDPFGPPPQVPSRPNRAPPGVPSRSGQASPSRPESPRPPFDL
UniProt O15258: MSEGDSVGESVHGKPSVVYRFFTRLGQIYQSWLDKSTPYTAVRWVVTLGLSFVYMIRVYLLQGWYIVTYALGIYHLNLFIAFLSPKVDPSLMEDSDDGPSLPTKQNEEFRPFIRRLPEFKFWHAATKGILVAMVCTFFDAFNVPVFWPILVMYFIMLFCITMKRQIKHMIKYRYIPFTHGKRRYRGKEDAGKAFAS
UniProt P61077: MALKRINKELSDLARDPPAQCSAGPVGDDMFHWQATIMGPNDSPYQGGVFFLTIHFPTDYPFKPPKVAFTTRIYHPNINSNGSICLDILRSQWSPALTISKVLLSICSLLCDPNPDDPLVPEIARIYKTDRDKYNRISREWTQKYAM

± gives the standard deviation of the averaged measurements. This is a selection; strong and weak results do not stand in their true shares. Small differences around the control level are noise.

Compound in one assay: Nc1ncnc2c1ncn2[C@@H]1O[C@H](COP(=O)(O)OP(=O)(O)OP(=O)(O)O)[C@@H](O)[C@H]1O [adenosine triphosphate]
Put plainly: NP40-soluble protein abundance relative to vehicle (solubility fold change) (ratio); higher = more soluble protein in presence of ATP. To be noted: concentration: 0.1mM. In short, it runs like this:
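Jurkat crude lysate (Dounce-homogenised) was treated with eight concentrations from 0.1 to 10 mM for 10 min at room temperature, then 3 min at 37 °C. It was solubilised with 0.8% NP40 and benzonase (60 min, 4 °C) and ultracentrifuged, and the supernatant was TMT-labelled for LC-MS/MS. Intensities were vsn-normalised, and the value is the fold change against the NP40-processed vehicle per replicate, from three independent experiments.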
As for A0A087WYU1|Q9Y5X1 (UniProt Q9Y5X1), the NP40-soluble protein abundance turned out to be 0.975 ± 0.071.

With A0A087WUT6|O60841 (UniProt O60841), the NP40-soluble protein abundance was 0.987 ± 0.03.

Take “A0A087X1G7|A0A0B4J1S4|O60613 (UniProt O60613)”: the NP40-soluble protein abundance stood at 0.945 ± 0.041.

As for A0A0A0MRN1|Q5T8I9 (UniProt Q5T8I9), the NP40-soluble protein abundance worked out at 1.1 ± 0.029.

As for “A0A087WUK6|A0A087WZT0|M0QZ22 and related entries (UniProt Q5PRF9)”, the NP40-soluble protein abundance worked out at 0.953 ± 0.058.

As for “A0A0A0MS18|C9JYJ0 and related entries (UniProt O15315)”, the NP40-soluble protein abundance was determined as 1.094 ± 0.0042.

Turning to A0A0A0MT83|P26440 (UniProt P26440), the NP40-soluble protein abundance is 1.06 ± 0.095.

“A0A0A0MSL4|A0A0G2JHL1|A0A0G2JJ73|A0A0G2JK30|A0A0G2JK37|A0A0G2JKD0|F6QYZ9 and related entries (UniProt O95872)”: the NP40-soluble protein abundance was 1.75 ± 1.1.

As to A0A087X020|Q9Y3A5 (UniProt Q9Y3A5), the NP40-soluble protein abundance was found to be 1.04 ± 0.069.

Consider “A0A0A0MRE5|Q9ULH1 and related entries (UniProt Q9ULH1)”, for which the NP40-soluble protein abundance came to 0.994 ± 0.043.

For “A0A0A0MTN0|Q13617 and related entries (UniProt Q13617)”, the NP40-soluble protein abundance worked out at 1.05 ± 0.09.

On to “A0A0A0MRJ6|C9J0F2 and related entries (UniProt P22061)”, for which the NP40-soluble protein abundance turned out to be 0.988 ± 0.04.

For the target A0A0A0MRS4|Q9NVV0 (UniProt Q9NVV0), the NP40-soluble protein abundance was found to be 1 ± 0.055.

As to “A0A0A0MQX8|C9JP00 and related entries (UniProt Q9NR56)”, the NP40-soluble protein abundance is 1 ± 0.055.

For “A0A0C4DG40|Q8NF91 and related entries (UniProt Q8NF91)”, the NP40-soluble protein abundance was found to be 0.971 ± 0.03.

For the target A0A087X0Q1|Q7Z739 (UniProt Q7Z739), the NP40-soluble protein abundance came to 0.966 ± 0.012.

On to A0A087WVU5|O00512 (UniProt O00512), for which the NP40-soluble protein abundance is 0.942 ± 0.18.

As to “A0A0A6YYH1|H0YLI7 and related entries (UniProt Q7Z6K5+P59780+H0YLI7)”, the NP40-soluble protein abundance was found to be 0.924 ± 0.065.

Consider A0A0C4DFX9|Q9H3P2 (UniProt Q9H3P2), for which the NP40-soluble protein abundance came to 1.04 ± 0.023.

Turning to A0A0A0MQU4|Q96I15 (UniProt Q96I15), the NP40-soluble protein abundance was determined as 0.975 ± 0.021.

Consider A0A0A0MQW0|A0A0A0MR39 (UniProt Q9P2K5), for which the NP40-soluble protein abundance worked out at 1.02 ± 0.028.

Turning to A0A0C4DGB1|Q9UNQ2 (UniProt Q9UNQ2), the NP40-soluble protein abundance is 1.06 ± 0.078.

A0A087WY55|Q9NP79 (UniProt Q9NP79): the NP40-soluble protein abundance amounted to 0.909 ± 0.12.

Consider “A0A088AWN8|Q9UHQ1 and related entries (UniProt Q9UHQ1)”, for which the NP40-soluble protein abundance was determined as 1.01 ± 0.074.

For the target “A0A0A0MRK6|Q13505 and related entries (UniProt Q13505)”, the NP40-soluble protein abundance amounted to 1.03 ± 0.066.

As for A0A0C4DFZ2|P15289 (UniProt P15289), the NP40-soluble protein abundance stood at 0.9591 ± 0.0093.

With A0A0C4DFU2|P04179 (UniProt P04179), the NP40-soluble protein abundance worked out at 0.932 ± 0.058.

Take “A0A0D9SFE4|A0A0D9SFB1|A0A0U1RQP1|Q05193 and related entries (UniProt Q05193)”: the NP40-soluble protein abundance is 1.02 ± 0.044.

On to “A0A087X011|E9PES4 and related entries (UniProt Q9Y496)”, for which the NP40-soluble protein abundance came to 1.04 ± 0.027.

Turning to “A0A0A0MTD9|A0A0A0MTE6|A0A0B4J1S7|E9PMT0 and related entries (UniProt Q9Y2R2)”, the NP40-soluble protein abundance was found to be 1.01 ± 0.043.

In the case of “A0A087WUC6|E9PI68 and related entries (UniProt Q15005)”, the NP40-soluble protein abundance came to 0.969 ± 0.056.

For A0A087WY96|P31641 (UniProt P31641), the NP40-soluble protein abundance was 0.944 ± 0.02.

For the target A0A0C4DFP8|Q5HYA8 (UniProt Q5HYA8), the NP40-soluble protein abundance was 0.928 ± 0.14.

Take A0A087WX71|Q9H501 (UniProt Q9H501): the NP40-soluble protein abundance is 1.03 ± 0.034.

With “A0A0A0MSE2|E9PF18 and related entries (UniProt Q16836)”, the NP40-soluble protein abundance is 1.01 ± 0.023.

As for “A0A0A0MR06|O15258 and related entries (UniProt O15258)”, the NP40-soluble protein abundance amounted to 0.917 ± 0.047.

As for “A0A087WY85|P61077 and related entries (UniProt P61077)”, the NP40-soluble protein abundance worked out at 0.957 ± 0.041.

Consider A0A0C4DGQ8|Q6IAN0 (UniProt Q6IAN0), for which the NP40-soluble protein abundance is 1.03 ± 0.1.

The same assay, now with this note: concentration: 0.5mM.
As to A0A087WYU1|Q9Y5X1 (UniProt Q9Y5X1), the NP40-soluble protein abundance is 1.02 ± 0.03.

For the target A0A087WUT6|O60841 (UniProt O60841), the NP40-soluble protein abundance amounted to 1.01 ± 0.051.

Regarding “A0A087X1G7|A0A0B4J1S4|O60613 (UniProt O60613)”, the NP40-soluble protein abundance came out at 0.919 ± 0.033.

For the target A0A0A0MRN1|Q5T8I9 (UniProt Q5T8I9), the NP40-soluble protein abundance worked out at 0.956 ± 0.059.

As for “A0A087WUK6|A0A087WZT0|M0QZ22 and related entries (UniProt Q5PRF9)”, the NP40-soluble protein abundance was 1.03 ± 0.044.

Regarding “A0A0A0MS18|C9JYJ0 and related entries (UniProt O15315)”, the NP40-soluble protein abundance stood at 1.05 ± 0.12.

Turning to A0A0A0MT83|P26440 (UniProt P26440), the NP40-soluble protein abundance was 1.04 ± 0.053.

“A0A0A0MSL4|A0A0G2JHL1|A0A0G2JJ73|A0A0G2JK30|A0A0G2JK37|A0A0G2JKD0|F6QYZ9 and related entries (UniProt O95872)”: the NP40-soluble protein abundance was 0.955 ± 0.049.

Turning to A0A087X020|Q9Y3A5 (UniProt Q9Y3A5), the NP40-soluble protein abundance is 1.06 ± 0.054.

Regarding “A0A0A0MRE5|Q9ULH1 and related entries (UniProt Q9ULH1)”, the NP40-soluble protein abundance turned out to be 0.999 ± 0.091.

With “A0A0A0MTN0|Q13617 and related entries (UniProt Q13617)”, the NP40-soluble protein abundance stood at 1.02 ± 0.036.

Regarding “A0A0A0MRJ6|C9J0F2 and related entries (UniProt P22061)”, the NP40-soluble protein abundance was found to be 0.97 ± 0.028.

As to A0A0A0MRS4|Q9NVV0 (UniProt Q9NVV0), the NP40-soluble protein abundance worked out at 1.0425 ± 0.00069.

Regarding “A0A0A0MQX8|C9JP00 and related entries (UniProt Q9NR56)”, the NP40-soluble protein abundance stood at 1.02 ± 0.032.

For “A0A0C4DG40|Q8NF91 and related entries (UniProt Q8NF91)”, the NP40-soluble protein abundance came to 1 ± 0.027.

For A0A087X0Q1|Q7Z739 (UniProt Q7Z739), the NP40-soluble protein abundance came out at 0.992 ± 0.029.

Turning to A0A087WVU5|O00512 (UniProt O00512), the NP40-soluble protein abundance came to 1.03 ± 0.082.

As to “A0A0A6YYH1|H0YLI7 and related entries (UniProt Q7Z6K5+P59780+H0YLI7)”, the NP40-soluble protein abundance came out at 0.939 ± 0.011.

As to A0A0C4DFX9|Q9H3P2 (UniProt Q9H3P2), the NP40-soluble protein abundance was found to be 0.975 ± 0.019.

For the target A0A0A0MQU4|Q96I15 (UniProt Q96I15), the NP40-soluble protein abundance was determined as 1.03 ± 0.061.

With A0A0A0MQW0|A0A0A0MR39 (UniProt Q9P2K5), the NP40-soluble protein abundance was determined as 1.03 ± 0.035.

As to A0A0C4DGB1|Q9UNQ2 (UniProt Q9UNQ2), the NP40-soluble protein abundance was determined as 1.13 ± 0.068.

As for A0A087WY55|Q9NP79 (UniProt Q9NP79), the NP40-soluble protein abundance worked out at 0.885 ± 0.16.

On to “A0A088AWN8|Q9UHQ1 and related entries (UniProt Q9UHQ1)”, for which the NP40-soluble protein abundance worked out at 0.918 ± 0.14.

With “A0A0A0MRK6|Q13505 and related entries (UniProt Q13505)”, the NP40-soluble protein abundance was determined as 1.05 ± 0.11.

On to A0A0C4DFZ2|P15289 (UniProt P15289), for which the NP40-soluble protein abundance came to 0.963 ± 0.0096.

Consider A0A0C4DFU2|P04179 (UniProt P04179), for which the NP40-soluble protein abundance turned out to be 0.944 ± 0.026.

In the case of “A0A0D9SFE4|A0A0D9SFB1|A0A0U1RQP1|Q05193 and related entries (UniProt Q05193)”, the NP40-soluble protein abundance worked out at 1.04 ± 0.02.

Take “A0A087X011|E9PES4 and related entries (UniProt Q9Y496)”: the NP40-soluble protein abundance worked out at 1.04 ± 0.018.

On to “A0A0A0MTD9|A0A0A0MTE6|A0A0B4J1S7|E9PMT0 and related entries (UniProt Q9Y2R2)”, for which the NP40-soluble protein abundance was determined as 1.07 ± 0.054.

Regarding “A0A087WUC6|E9PI68 and related entries (UniProt Q15005)”, the NP40-soluble protein abundance came out at 0.962 ± 0.035.

On to A0A087WY96|P31641 (UniProt P31641), for which the NP40-soluble protein abundance stood at 0.908 ± 0.071.

For the target A0A0C4DFP8|Q5HYA8 (UniProt Q5HYA8), the NP40-soluble protein abundance turned out to be 0.997 ± 0.037.

Turning to A0A087WX71|Q9H501 (UniProt Q9H501), the NP40-soluble protein abundance was determined as 1.08 ± 0.048.

For the target “A0A0A0MSE2|E9PF18 and related entries (UniProt Q16836)”, the NP40-soluble protein abundance came to 1.01 ± 0.041.

In the case of “A0A0A0MR06|O15258 and related entries (UniProt O15258)”, the NP40-soluble protein abundance came out at 0.96 ± 0.11.

As for “A0A087WY85|P61077 and related entries (UniProt P61077)”, the NP40-soluble protein abundance worked out at 0.923 ± 0.046.

Regarding A0A0C4DGQ8|Q6IAN0 (UniProt Q6IAN0), the NP40-soluble protein abundance turned out to be 0.974 ± 0.021.
